Experiment [1] concerns the target T1, MvaT 1-62-His (P. aeruginosa) (UniProt Q9HW86).
T1 sequence: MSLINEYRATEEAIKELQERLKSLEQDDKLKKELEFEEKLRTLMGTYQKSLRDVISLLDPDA
Put plainly: pull-down.

Experiment [2] addresses T2, MvaT 79-124-His (P. aeruginosa) (UniProt Q9HW86).
T2 sequence: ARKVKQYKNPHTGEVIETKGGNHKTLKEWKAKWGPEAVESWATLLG
As to the kind of experiment: pull-down.

The text below walks through data of publication doi:10.1101/2021.03.03.433722.

These are yes or no findings as the source states them, for the method shown. For some assays here: Binding calls can cover weak binding; strength is not graded here. Sequences can lack the tags named with a protein.

gp4 of Pseudomonas phage LUZ24: the binding result in experiment [1] is listed as “binds”; in experiment [2], “no binding (tested: 40 µM)”.
